Here are results for one substance from patent publication US20030176339A1.

The chains behind the UniProt entries cited, without tags or fusion partners. Where a name states a change or a piece, a line headed by the entry shows the natural chain unless it says otherwise. Residues count along the entry.
UniProt P02647, residues 25-267: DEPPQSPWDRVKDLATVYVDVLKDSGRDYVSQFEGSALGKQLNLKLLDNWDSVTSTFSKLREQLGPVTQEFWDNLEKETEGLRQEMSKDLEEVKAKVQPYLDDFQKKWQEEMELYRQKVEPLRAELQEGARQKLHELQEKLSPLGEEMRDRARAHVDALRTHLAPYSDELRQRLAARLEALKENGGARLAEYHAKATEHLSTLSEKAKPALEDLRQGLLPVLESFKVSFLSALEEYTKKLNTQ
UniProt O60494: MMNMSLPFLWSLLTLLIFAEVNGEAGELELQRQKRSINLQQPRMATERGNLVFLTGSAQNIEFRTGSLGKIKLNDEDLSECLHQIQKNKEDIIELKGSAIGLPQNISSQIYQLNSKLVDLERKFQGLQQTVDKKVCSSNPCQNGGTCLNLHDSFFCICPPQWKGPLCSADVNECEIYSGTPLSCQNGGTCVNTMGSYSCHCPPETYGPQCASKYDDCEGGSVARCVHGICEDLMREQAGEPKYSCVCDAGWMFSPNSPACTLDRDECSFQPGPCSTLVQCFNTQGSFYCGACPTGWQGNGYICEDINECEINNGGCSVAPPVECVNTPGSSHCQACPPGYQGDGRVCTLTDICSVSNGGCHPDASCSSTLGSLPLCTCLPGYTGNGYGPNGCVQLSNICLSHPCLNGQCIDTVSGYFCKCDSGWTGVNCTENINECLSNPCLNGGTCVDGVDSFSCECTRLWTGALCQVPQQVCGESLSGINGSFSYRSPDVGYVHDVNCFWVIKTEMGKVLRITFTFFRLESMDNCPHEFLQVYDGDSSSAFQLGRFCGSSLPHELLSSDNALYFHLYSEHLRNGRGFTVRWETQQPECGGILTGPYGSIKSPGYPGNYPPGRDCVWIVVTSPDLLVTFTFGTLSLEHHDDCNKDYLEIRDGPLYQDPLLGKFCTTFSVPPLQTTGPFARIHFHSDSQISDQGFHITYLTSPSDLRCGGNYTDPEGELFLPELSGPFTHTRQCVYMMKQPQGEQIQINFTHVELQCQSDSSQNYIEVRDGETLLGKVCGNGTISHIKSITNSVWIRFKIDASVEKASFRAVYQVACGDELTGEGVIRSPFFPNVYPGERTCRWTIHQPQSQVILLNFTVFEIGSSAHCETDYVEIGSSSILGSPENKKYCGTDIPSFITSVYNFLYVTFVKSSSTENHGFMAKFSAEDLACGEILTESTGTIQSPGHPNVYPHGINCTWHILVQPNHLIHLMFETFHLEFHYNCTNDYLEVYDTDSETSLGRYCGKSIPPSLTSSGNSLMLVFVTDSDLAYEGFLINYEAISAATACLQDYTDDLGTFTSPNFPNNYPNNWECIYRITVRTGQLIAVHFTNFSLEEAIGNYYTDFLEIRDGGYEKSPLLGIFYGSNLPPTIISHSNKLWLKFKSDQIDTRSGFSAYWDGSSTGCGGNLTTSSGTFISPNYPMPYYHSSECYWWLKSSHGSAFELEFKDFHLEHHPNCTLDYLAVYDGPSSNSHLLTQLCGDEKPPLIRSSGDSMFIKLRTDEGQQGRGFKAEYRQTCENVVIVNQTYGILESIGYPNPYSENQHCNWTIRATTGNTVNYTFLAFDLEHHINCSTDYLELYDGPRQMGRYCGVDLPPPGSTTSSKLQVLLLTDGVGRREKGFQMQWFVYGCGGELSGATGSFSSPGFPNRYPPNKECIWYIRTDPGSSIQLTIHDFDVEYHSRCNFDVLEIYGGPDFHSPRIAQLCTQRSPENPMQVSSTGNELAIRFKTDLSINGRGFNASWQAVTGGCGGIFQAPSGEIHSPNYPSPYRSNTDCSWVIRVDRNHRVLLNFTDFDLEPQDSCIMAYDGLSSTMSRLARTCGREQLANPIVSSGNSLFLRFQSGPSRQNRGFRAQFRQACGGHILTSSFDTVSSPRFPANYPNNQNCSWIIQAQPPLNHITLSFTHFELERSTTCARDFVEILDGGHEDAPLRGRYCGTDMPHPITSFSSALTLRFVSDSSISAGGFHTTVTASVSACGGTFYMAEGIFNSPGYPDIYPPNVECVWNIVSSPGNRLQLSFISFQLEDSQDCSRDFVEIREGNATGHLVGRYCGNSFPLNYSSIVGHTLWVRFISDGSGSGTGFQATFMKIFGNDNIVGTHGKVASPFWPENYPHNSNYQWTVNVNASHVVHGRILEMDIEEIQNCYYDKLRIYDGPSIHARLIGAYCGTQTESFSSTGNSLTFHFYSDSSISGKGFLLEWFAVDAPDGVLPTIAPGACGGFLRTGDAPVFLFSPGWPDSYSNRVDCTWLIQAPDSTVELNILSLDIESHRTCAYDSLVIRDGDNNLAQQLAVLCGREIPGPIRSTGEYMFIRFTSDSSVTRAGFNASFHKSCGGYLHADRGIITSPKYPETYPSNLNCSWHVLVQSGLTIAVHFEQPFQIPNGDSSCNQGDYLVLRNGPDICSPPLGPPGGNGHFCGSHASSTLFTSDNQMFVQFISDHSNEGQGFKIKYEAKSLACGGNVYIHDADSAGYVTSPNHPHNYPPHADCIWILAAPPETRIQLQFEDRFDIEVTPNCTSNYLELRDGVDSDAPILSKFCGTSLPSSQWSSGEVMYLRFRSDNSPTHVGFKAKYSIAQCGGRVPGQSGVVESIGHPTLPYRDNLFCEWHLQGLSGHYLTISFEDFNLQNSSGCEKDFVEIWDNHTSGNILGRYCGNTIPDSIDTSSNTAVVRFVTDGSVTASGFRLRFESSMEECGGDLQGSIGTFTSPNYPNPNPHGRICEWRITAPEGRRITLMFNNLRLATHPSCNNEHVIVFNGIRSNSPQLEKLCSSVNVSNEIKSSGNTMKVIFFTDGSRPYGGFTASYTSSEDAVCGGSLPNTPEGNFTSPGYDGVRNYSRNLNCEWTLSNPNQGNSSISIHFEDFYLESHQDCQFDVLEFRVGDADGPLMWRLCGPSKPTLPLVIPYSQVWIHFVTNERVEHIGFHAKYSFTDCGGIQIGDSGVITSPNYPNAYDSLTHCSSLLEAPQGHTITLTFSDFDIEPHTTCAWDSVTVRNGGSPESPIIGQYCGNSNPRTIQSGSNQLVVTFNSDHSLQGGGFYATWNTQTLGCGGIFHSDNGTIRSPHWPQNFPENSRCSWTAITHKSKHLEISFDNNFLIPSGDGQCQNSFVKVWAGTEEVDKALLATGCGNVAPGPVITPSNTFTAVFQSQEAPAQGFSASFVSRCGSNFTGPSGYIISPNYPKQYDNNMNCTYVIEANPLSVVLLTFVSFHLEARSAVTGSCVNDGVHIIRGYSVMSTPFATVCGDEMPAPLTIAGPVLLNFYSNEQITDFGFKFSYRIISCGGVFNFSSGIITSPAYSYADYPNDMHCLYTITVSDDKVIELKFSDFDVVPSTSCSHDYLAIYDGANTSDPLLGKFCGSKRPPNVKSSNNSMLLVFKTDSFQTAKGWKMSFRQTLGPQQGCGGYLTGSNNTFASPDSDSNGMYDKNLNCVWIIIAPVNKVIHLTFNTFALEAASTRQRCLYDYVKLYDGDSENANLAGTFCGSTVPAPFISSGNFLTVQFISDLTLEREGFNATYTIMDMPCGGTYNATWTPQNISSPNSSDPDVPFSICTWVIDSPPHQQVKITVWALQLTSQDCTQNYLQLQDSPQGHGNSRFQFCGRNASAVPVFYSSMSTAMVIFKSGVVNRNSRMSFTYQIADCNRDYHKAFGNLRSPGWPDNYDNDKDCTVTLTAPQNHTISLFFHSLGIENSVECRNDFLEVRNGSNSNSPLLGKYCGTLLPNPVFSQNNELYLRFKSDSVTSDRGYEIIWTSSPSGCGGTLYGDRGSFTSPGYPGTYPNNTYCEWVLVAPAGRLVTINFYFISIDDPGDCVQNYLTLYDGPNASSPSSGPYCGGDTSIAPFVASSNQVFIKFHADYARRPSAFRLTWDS

Results are given in words; binding and its absence hold for the method and conditions named. In cells and extracts the contact can be indirect. Some binding calls cover weakened binding; strength is not graded here.

The target in this experiment is human apolipoprotein A-I (Sigma), cross-linked to CNBr-activated Sepharose resin (human) (UniProt P02647). Briefly: pull-down of insect cell supernatant on apo A-I Sepharose, EDTA elution, anti-Myc Western blot. For orientation: In western blotting, separated proteins are transferred to a membrane and probed.

As to “CUB9-CUB14 fragment peptide of human cubilin with C-terminal Myc tag and His tag, expressed in HiFive insect cells (from UniProt O60494 1358-2091) (receptor)”, the binding entry was “binds”.
